Assay results as given in publication PMC11157767 (Molecular Cancer, 2024).
The source gives many values for each of these; only a part stands here.

System: TFG-MET allograft tumors
Assay: RNA-sequencing, differential expression and GSEA of TFG-MET allograft tumors
Format: in vivo, mouse
Description: Error bars display standard error of mean, statistical significance was determined using t-test analysis. (****;p<0.0001, ***;p<0.001, **;p<0.01, *;p<0.05). […] Each dot represents an individual replicate. Error bars display standard error of the mean.
Each dot represents one gene.

[1] = GOCC_STEREOCILIUM_TIP, CAP.v.Veh
[2] = GOCC_STRIATED_MUSCLE_THIN_FILAMENT, CAP.v.Veh
[3] = GOCC_SUPRAMOLECULAR_POLYMER, CAP.v.Veh
[4] = GOCC_SWI_SNF_COMPLEX, CAP.v.Veh
[5] = GOCC_SYNAPTONEMAL_STRUCTURE, CAP.v.Veh
[6] = GOCC_TRANSCRIPTIONALLY_ACTIVE_CHROMATIN, CAP.v.Veh
[7] = GOCC_TRANSPORTER_COMPLEX, CAP.v.Veh
[8] = GOCC_TRANSPORT_VESICLE, CAP.v.Veh
[9] = GOCC_TRANSPORT_VESICLE_MEMBRANE, CAP.v.Veh
[10] = GOCC_TRANS_GOLGI_NETWORK_MEMBRANE, CAP.v.Veh
[11] = GOCC_UBIQUITIN_LIGASE_COMPLEX, CAP.v.Veh
[12] = GOCC_VOLTAGE_GATED_CALCIUM_CHANNEL_COMPLEX, CAP.v.Veh

## CNC(=O)c1ccc(-c2cnc3ncc(Cc4ccc5ncccc5c4)n3n2)cc1F [Capmatinib]
GOCC_STEREOCILIUM_BUNDLE, CAP.v.Veh
  NES: -0.9456
[1]
  ES: 0.2712
  NES: 0.852
[2]
  ES: -0.2472
  NES: -0.7125
[3]
  ES: -0.1946
  NES: -0.9401
[4]
  ES: -0.3731
  NES: -1.04
GOCC_SYNAPTIC_CLEFT, CAP.v.Veh
  ES: 0.3229
  NES: 1.071
[5]
  ES: -0.3122
  NES: -0.938
GOCC_TIGHT_JUNCTION, CAP.v.Veh
  ES: -0.2637
  NES: -1.098
[6]
  ES: -0.4591
  NES: -1.376
[7]
  ES: 0.1838
  NES: 1.0908
[8]
  ES: 0.1731
  NES: 1.016
[9]
  ES: 0.1992
  NES: 1.108
[10]
  ES: 0.1787
  NES: 0.8673
GOCC_U5_SNRNP, CAP.v.Veh
  ES: -0.3461
  NES: -0.9825
[11]
  ES: -0.249
  NES: -1.137
GOCC_VESICLE_COAT, CAP.v.Veh
  ES: -0.2433
  NES: -0.8906
[12]
  ES: 0.2287
  NES: 0.9281
GOMF_3_5_EXONUCLEASE_ACTIVITY, CAP v Veh
  ES: -0.5851
GOMF_3_5_EXONUCLEASE_ACTIVITY, CAP v Veh, padj 3.79034e-5
  NES: -2.154
GOMF_ACETYLTRANSFERASE_ACTIVITY, CAP v Veh
  ES: -0.3683
GOMF_ACETYLTRANSFERASE_ACTIVITY, CAP v Veh, padj 0.0896504
  NES: -1.4731
GOMF_ANTIGEN_BINDING, CAP v Veh
  ES: 0.4175
GOMF_ANTIGEN_BINDING, CAP v Veh, padj 9.7126e-5
  NES: 2.045
GOMF_ATPASE_ACTIVITY, CAP v Veh
  ES: -0.4489
GOMF_ATPASE_ACTIVITY, CAP v Veh, padj 4.05909e-16
  NES: -2.122
GOMF_ATPASE_ACTIVITY_COUPLED_TO_TRANSMEMBRANE_MOVEMENT_OF_IONS_ROTATIONAL_MECHANISM, CAP v Veh
  ES: 0.6568
GOMF_BASAL_TRANSCRIPTION_MACHINERY_BINDING, CAP v Veh
  ES: -0.5295
GOMF_BASAL_TRANSCRIPTION_MACHINERY_BINDING, CAP v Veh, padj 0.000818404
  NES: -1.974
GOMF_CADHERIN_BINDING, CAP v Veh
  ES: -0.3418
GOMF_CATALYTIC_ACTIVITY_ACTING_ON_A_RRNA, CAP v Veh
  ES: -0.6876
GOMF_CATALYTIC_ACTIVITY_ACTING_ON_A_RRNA, CAP v Veh, padj 0.000999398
  NES: -2.031
GOMF_CATALYTIC_ACTIVITY_ACTING_ON_RNA, CAP v Veh
  ES: -0.5707
GOMF_CATALYTIC_ACTIVITY_ACTING_ON_RNA, CAP v Veh, padj 6.64586e-32
  NES: -2.666
GOMF_CELL_ADHESION_MOLECULE_BINDING, CAP v Veh
  ES: -0.2627
GOMF_CELL_ADHESION_MOLECULE_BINDING, CAP v Veh, padj 0.0952199
  NES: -1.252
GOMF_CHROMATIN_BINDING, CAP v Veh
  ES: -0.4456
GOMF_CHROMATIN_DNA_BINDING, CAP v Veh
  ES: -0.4681
GOMF_CHROMATIN_DNA_BINDING, CAP v Veh, padj 0.00192115
  NES: -1.853
GOMF_CIS_REGULATORY_REGION_SEQUENCE_SPECIFIC_DNA_BINDING, CAP v Veh
  ES: -0.3195
GOMF_C_C_CHEMOKINE_BINDING, CAP v Veh
  ES: 0.614
GOMF_C_C_CHEMOKINE_BINDING, CAP v Veh, padj 0.00332373
  NES: 2.15
GOMF_DAMAGED_DNA_BINDING, CAP v Veh
  ES: -0.5323
GOMF_DAMAGED_DNA_BINDING, CAP v Veh, padj 3.79034e-5
  NES: -2.06
GOMF_DNA_BINDING_TRANSCRIPTION_FACTOR_ACTIVITY, CAP v Veh
  ES: -0.2925
GOMF_DNA_BINDING_TRANSCRIPTION_FACTOR_ACTIVITY, CAP v Veh, padj 0.000282579
  NES: -1.427
GOMF_DNA_BINDING_TRANSCRIPTION_FACTOR_BINDING, CAP v Veh
  ES: -0.331
GOMF_DNA_BINDING_TRANSCRIPTION_FACTOR_BINDING, CAP v Veh, padj 0.00121719
  NES: -1.544
GOMF_DNA_DEPENDENT_ATPASE_ACTIVITY, CAP v Veh
  ES: -0.6653
GOMF_DNA_DEPENDENT_ATPASE_ACTIVITY, CAP v Veh, padj 5.49162e-8
  NES: -2.428
GOMF_DNA_REPLICATION_ORIGIN_BINDING, CAP v Veh
  ES: -0.7429
GOMF_DNA_SECONDARY_STRUCTURE_BINDING, CAP v Veh
  ES: -0.5938
GOMF_DNA_SECONDARY_STRUCTURE_BINDING, CAP v Veh, padj 0.000576173
  NES: -2.028
GOMF_ELECTRON_TRANSFER_ACTIVITY, CAP v Veh
  ES: 0.4609
GOMF_ELECTRON_TRANSFER_ACTIVITY, CAP v Veh, padj 2.1374e-8
  NES: 2.343
GOMF_EXONUCLEASE_ACTIVITY, CAP v Veh
  ES: -0.5165
GOMF_EXONUCLEASE_ACTIVITY, CAP v Veh, padj 0.000106377
  NES: -2.037
GOMF_EXONUCLEASE_ACTIVITY_ACTIVE_WITH_EITHER_RIBO_OR_DEOXYRIBONUCLEIC_ACIDS_AND_PRODUCING_5_PHOSPHOMONOESTERS, CAP v Veh
  ES: -0.5585
GOMF_EXONUCLEASE_ACTIVITY_ACTIVE_WITH_EITHER_RIBO_OR_DEOXYRIBONUCLEIC_ACIDS_AND_PRODUCING_5_PHOSPHOMONOESTERS, CAP v Veh, padj 7.88894e-5
  NES: -2.0933
GOMF_EXORIBONUCLEASE_ACTIVITY, CAP v Veh
  ES: -0.5822
GOMF_EXORIBONUCLEASE_ACTIVITY, CAP v Veh, padj 0.000606605
  NES: -2.022
GOMF_GENERAL_TRANSCRIPTION_INITIATION_FACTOR_BINDING, CAP v Veh
  ES: -0.4328
GOMF_GENERAL_TRANSCRIPTION_INITIATION_FACTOR_BINDING, CAP v Veh, padj 0.0916898
  NES: -1.54
GOMF_GLUTATHIONE_TRANSFERASE_ACTIVITY, CAP v Veh
  ES: 0.6773
GOMF_GLUTATHIONE_TRANSFERASE_ACTIVITY, CAP v Veh, padj 0.000294466
  NES: 2.3366
